# Reference: patent US20250296961A1, “ANTIMICROBIAL PEPTIDES FOR REMINERALIZATION OF TEETH AND PREVENTION OF DENTAL CARIES” (The University of Hong Kong, priority 2021, published 2025)
# Read-outs that look alike come from different tables or passages of the source. At least one peptide structure holds a part that was inferred or is arguable (an end, a ring closure or a residue). No end group written: not given here.
# What was measured:
# [1] = system: S. gordonii; assay: Anti-planktonic bacterial ability, MBC (Example 2); type: cell-based, S. gordonii (ATCC 35105)
# Protocol: (§1) S. mutans (ATCC 35668, ATCC, Manassas, USA), S. gordonii (ATCC 35105, ATCC, Manassas, USA), and S. sanguinis (ATCC 10556, ATCC, Manassas, USA) strains were cultured in brain-heart infusion broth (BHI, Difco Laboratories, Detroit, USA) at 37° C. under anaerobic conditions (85% N2, 10% H2, and 5% CO2). Bacteria were harvested by centrifugation (5000 rpm, 10 min), washed once with sodium phosphate-buffered saline (PBS, 10 mM, pH=7.2), and resuspended in BHI at a concentration of 1×10^6 CFU mL^−1.
# (§2) Each well was seeded with 10 μL S. mutans suspension, S. gordonii suspension, and S. sanguinis suspension, respectively. […] The bacterial growth was assessed by measuring the absorbance at 595 nm using a microplate reader after a 24-hour incubation. Subsequently, 10 μL of bacterial suspension from each well were plated on horse blood agar plates and incubated at 37° C. for 48 h. The antibacterial activities of AMPs were evaluated.
# [2] = system: S. sanguinis; assay: Anti-planktonic bacterial ability, MBC (Example 2); type: cell-based, S. sanguinis (ATCC 10556)
# Protocol: as §1, §2
# [3] = system: S. mutans; assay: 24 h growth curve of S. mutans in ½×MBC of AMPs; type: cell-based, S. mutans (ATCC 35668)
# [4] = system: S. mutans biofilms; type: cell-based, S. mutans (ATCC 35668); settings: for Viability by CFU counts (biofilm): 24 h
# [5] = General properties of peptides in HEPES; type: physicochemical
# [6] = Stability of 8DSS-C8-P-113 hydrogel on tooth surface in flow water (BCA); type: physicochemical; settings: flow water 30 mL h-1
# Protocol: 20 μL of 16 μM mL^−1 solution of 8DSS-C8-P-113 was applied to the tooth surface (N=5), and self-formed a layer of hydrogel sticking to the bottom of a hand-made instrument (FIG. 2J). To simulate the average human salivary flow rate, a stable flow of deionized water at a rate of 30 mL h-1 was provided using a Syringe Pump (LSP02-1B Double Channel inject/extract, China). The drained liquid, approximately 15 mL, was collected every 30 min. A sample of 100 μL of 16 μM mL^−1 solution of 8DSS-C8-P-113 was added to 15 mL of deionized water to serve as the 0 min sample. After 2 h, the drained liquids collected at 30 min, 60 min, 90 min, and 120 min were tested for their concentrations using Pierce BCA Protein Assay Kit (Rockford, IL).
# [7] = Remineralization assay of peptides (Example 2; FE-SEM, Vicker's hardness); parameters: species or system human; settings: for Promoting remineralization: summary grade
# [8] = system: S. mutans; assay: Demineralization assay in the artificial caries model (MicroCT); type: cell-based; settings: for Inhibiting demineralization in the artificial caries model: summary grade
# [9] = system: LDH activity of the S. mutans culture; assay: Lactate dehydrogenase assay; type: cell-based; settings: ¼×MBC and ½×MBC, 24 h
# [10] = system: S. mutans biofilms; assay: Water-insoluble extracellular polysaccharides measurement and EPS staining; type: cell-based
# [11] = system: S. mutans; type: in vivo, Sprague-Dawley rats
# Protocol: The rat caries model was conducted under the protocol approved by the Ethics Committee of Anhui Medical University, China (ref. no. LLSC20232002) in accordance with national and international guidelines to minimise animal suffering. Ten male specific pathogen-free Sprague-Dawley rats aged 6 weeks were selected. The rats were provided with appropriate antibiotics (ampicillin, chloramphenicol, and carbencillin 1.0 g/kg/day) in the drinking water for 3 days. […] The infection was confirmed by oral swabbing and culturing on mitis salivarius-bacitracin (MSB) agar plates. The infected animals were randomly assigned into two groups (N=10): 16 μM mL^−1 of 8DSS-C8-P-113 in 10 mM HEPES (pH=7, n=5) and 10 mM HEPES (n=5, control group). Animals in each group were treated with 150 μL of the respective treatment topically using dental bonding brush for 2 min once daily for 4 weeks. […] After the rats were sacrificed, the lower jaw was aseptically dissected and sonicated in 5.0 mL of sterile saline solution (0.9%, w/v). The obtained suspensions were streaked on MSB agar plates to estimate the population of S. mutans. The lower left molars of the rats were scanned using MicroCT to analyze the volume of dental caries. The 3D reconstructions of the tooth crown and tooth half-crown were conducted by the CTVOL software (ver. 2.3.2.0, Bruker MicroCT, USA). All molars were cut from mesial to distal, the cross sections were photographed using the stereo microscope (Nikon SM218, USA). The severity of caries was evaluated by the Keyes' scoring system which categorizes caries as enamel only (E), dentin exposed ¼ to ¾ (Ds), or more than ¾ dentin affected (Dm). The rats' weights were recorded to monitor for signs of toxicity. Additionally, various tissues from gingiva, palate, heart, liver, spleen, lung, and kidney were collected, stained with hematoxylin and eosin (H&E), and histopathologically analysed.
sequence,measurement,setting,value
DSSDSSDSSDSSDSSDSSDSSDSSTFFRLFNRAKRHHGYKRKFH [8DSS-C8-P-113],"MBC, S. gordonii",[1],32 μM mL^−1
same,"MBC, S. sanguinis",[2],32 μM mL^−1
same,Effect on S. mutans growth,[3],inhibitory effect
same,Viability by CFU counts (biofilm),[4]; 8×MBC,3.14E+06 CFU mL^−1
same,Viability by CFU counts (biofilm),[4]; 16×MBC,1.25E+05 CFU mL^−1
same,Anti-biofilm (effective concentration as multiple of MBC),[4]; S. mutans biofilm,(8 × × MBC
same,Anti-biofilm (effective concentration),[4]; S. mutans biofilm,16 μM mL^−1
same,Isoelectric point (pI),[5],6.35
same,Appearance in HEPES,"[5]; 1 μM mL^−1, pH=7",white suspension
same,Appearance in HEPES,"[5]; 16 μM mL^−1, pH=7, after 10 minutes of dissolving",formed a hydrogel
same,Hydrogel's dissolving percentage every 30 min,[6],approximately 4.46%
same,Thickness of needle-like crystals,"[7]; 16 μM mL^−1, 3rd day",11.4 μm
same,Vicker's hardness (mean),"[7]; 16 μM mL^−1, 3rd day",194.78±24.96 HV
same,Thickness of needle-like crystals,"[7]; 16 μM mL^−1, 7th day",23.6 μm
same,Vicker's hardness (mean),"[7]; 16 μM mL^−1, 7th day",238.89±53.24 HV
same,Vicker's hardness (mean),"[7]; MBC, 1st day",226.94±19.61 HV
same,Promoting remineralization,[7]; 16 μM mL^−1,mL^−1: +++
same,Promoting remineralization,[7]; MBC,MBC: ++
same,Bone mineral density of lesion (mean),"[8]; 16 μM mL^−1, 7 days",1.311±0.038 g cm^−3
same,Lesion depth (mean),"[8]; 16 μm mL^−1, 7 days",113.57±15.24 μm
same,Bone mineral density of lesion (mean),"[8]; MBC, 7 days",1.239±0.033 g cm^−3
same,Lesion depth (mean),"[8]; MBC, 7 days",123.74±10.82 μm
same,Inhibiting demineralization in the artificial caries model,[8]; 16 μM mL^−1,mL^−1: +++
same,Inhibiting demineralization in the artificial caries model,[8]; MBC,MBC: +++
same,LDH activity vs control group,[9],significantly lower
same,Amount of water-insoluble EPS (absorbance) vs control group,[10]; ¼×MBC and ½×MBC,significantly reduced
same,"Amount of water-insoluble EPS, quantitative analyses of EPS and biofilm formation","[10]; ⅛, ¼ and ½×MBC",significant reduction
same,S. mutans CFU from dental plaques vs HEPES group,"[11]; 16 μM mL^−1 topically once daily 4 weeks, P<0.05",significant decrease
same,"Keyes' scores of Ds, smooth surface vs HEPES group",[11]; Ds: P<0.05,significantly lower
same,"Keyes' scores, sulcal surface vs HEPES group","[11]; E and Ds: P<0.05, Dm: P<0.01",significantly lower
same,Volume of enamel lesions and dentin lesions on rat teeth vs HEPES group,[11]; MicroCT,reduced
